Data source: PubChem BioAssay AID743121 (NCATS, 2013)

- Screen: 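Genes whose silencing strengthens cell killing by camptothecin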 (primary screen)
- Cells: MDA-MB-231 cells, a human breast cancer line
- Reagent: single siRNA against human genes, 20 nM siRNA (0.8 pmol per well)
- Duration: 120 h (drug added 48 h after transfection, read 72 h later)
- Conditions: camptothecin 20 nM (about EC30) for 72 h; vehicle 0.1% DMSO in parallel plates
- Detection: 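CellTiter-Glo ATP signal, scaled to control siRNA as percent viability; sensitisation given as log2 of untreated divided by camptothecin-treated viability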
- Direction: log2 vehicle/camptothecin viability: higher = stronger sensitisation to camptothecin; viability with camptothecin and viability without drug: higher = more viable cells
- Call rule: 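Active genes have an RSA gene-level p-value below 0.001, computed from the ratios of their separate siRNAs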
Here is an unselected part of about 26,000 reagents tested. 167 of them (0.63%) count as active. 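Calls are per gene from RSA p-values that are not deposited; an individual active-marked siRNA can sensitise only weakly.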 Reagents against one gene are numbered here. No sequences are given here.

| gene knocked down | reagent no. | log2 vehicle/camptothecin viability | viability with camptothecin (% of control) | viability without drug (% of control) | outcome |
| --- | --- | --- | --- | --- | --- |
| TNS1 | 1 | -0.199 | 85.2 | 74.2 | inactive |
| TNS1 | 2 | -0.00702 | 63.4 | 63 | inactive |
| TNS1 | 3 | -0.0747 | 96.8 | 91.9 | inactive |
| TNS1 | 4 | -0.334 | 40.6 | 32.2 | inactive |
| DHRS7 | 1 | 0.259 | 87.4 | 105 | inactive |
| DHRS7 | 2 | -0.763 | 109 | 64.4 | inactive |
| DHRS7 | 3 | -0.279 | 75.2 | 62 | inactive |
| LONRF1 | 1 | 0.144 | 87.9 | 97.1 | inactive |
| LONRF1 | 2 | 0.0738 | 66.1 | 69.6 | inactive |
| LONRF1 | 3 | 0.535 | 49.8 | 72.2 | inactive |
| LONRF1 | 4 | -0.0233 | 80.9 | 79.6 | inactive |
| GPR101 | 1 | -0.681 | 79.6 | 49.6 | inactive |
| GPR101 | 2 | 0.0748 | 49.7 | 52.4 | inactive |
| GPR101 | 3 | -0.231 | 67.7 | 57.7 | inactive |
| GPR101 | 4 | -0.176 | 94.6 | 83.7 | inactive |
| PLPP3 | 1 | -0.071 | 46.2 | 44 | inactive |
| PLPP3 | 2 | -0.211 | 80.8 | 69.8 | inactive |
| PLPP3 | 3 | -0.283 | 76.2 | 62.6 | inactive |
| PLPP3 | 4 | -0.254 | 110 | 92.7 | inactive |
| EBAG9 | 1 | -0.534 | 103 | 71.4 | inactive |
| EBAG9 | 2 | 0.136 | 90.9 | 99.8 | inactive |
| EBAG9 | 3 | -0.278 | 71.3 | 58.8 | inactive |
| EBAG9 | 4 | 0.163 | 52.8 | 59.2 | inactive |
| GRM5 | 1 | 0.167 | 86.2 | 96.8 | inactive |
| GRM5 | 2 | 0.19 | 109 | 125 | inactive |
| GRM5 | 3 | -0.0195 | 42.9 | 42.3 | inactive |
| GRM5 | 4 | -0.108 | 95.4 | 88.5 | inactive |
| DEFA3 | 1 | -0.07 | 99.2 | 94.5 | inactive |
